# Library screening results

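Viability assay of Plasmodium falciparum sporozoites; the read-out is not stated. The concentration is filed as 10 mM, unlikely as a test dose, so the dose is not known. Direction is inferred from retests: higher values go with lower viability. Strong results were mostly tested again. About 34,000 compounds were tested under these conditions; 0.84% (about 280) showed 50% or more at least once.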

Values are the deposited “Percent Effect”, in %.
The controls that fix the scale are not given in the record; negative values are as filed.
The compounds are a random part of those screened.
Two or more numbers in one place are separate tests of the same structure; such repeats can differ widely.

* Cc1nnsc1C(=O)N1CCCCC1c1cc2nc(C)c(C)c(O)n2n1 (stereo not drawn) | 3.934%
* CN(Cc1ccc(C(N)=O)cc1)c1ccc(C(F)(F)F)cn1 | -2.722%
* Cc1nn(C)cc1CCC(=O)N1CCCC(n2cncn2)C1 (stereo not drawn) | -9.804%
* COc1ccc(C(=O)N2CC(=O)N(C3CCC3)CC(O)C2)cc1OC (stereo not drawn) | -30.52%
* CCC(CC)C(=O)N1CCN(Cc2cc(-c3ccncc3)nn2C)CC1 | 8.636%
* Cc1nc(C)n(CC2CCCN(Cc3ncc(C(C)(C)C)o3)C2)n1 (stereo not drawn) | 4.424%
* COc1ccc(CNC(=O)Nc2cccnc2OC)cc1O | -0.9015%
* CCS(=O)(=O)N1CCC(c2nnc(CN3CCCCCC3)n2C)CC1 | -2.249%
* CC(C)(C)c1cn2nc(N3CCCCC3Cn3cncn3)sc2n1 (stereo not drawn) | -6.496% and -19.05% and -22.94%
* Cc1cncc(C2CCN(Cc3cnc(C)nc3)CC2)n1 | 3.401%
* CSCc1cc(F)ccc1CNC(=O)N1CCOCC1 | 1.579%
* CCc1nnc2n1CCN(CC(=O)Nc1cc(C)nn1C)C2 | 2.88%
* CC(C)c1ccc(OCCC(=O)N2CCCC(C(N)=O)C2)cc1 (stereo not drawn) | 7.183%
* CN(C)c1cc(C(=O)N2CCCN(c3cccnn3)CC2)ccn1 | 8.89%
* c1cnn(CC2CN(Cc3nc(C4CC4)no3)CCO2)c1 (stereo not drawn) | 4.816%
* CCn1cc(-c2cc(C(F)F)n3nc(CC(=O)O)nc3n2)cn1 | 16.94%
* Cc1nc2c(c(N3CC=CC3)n1)CCN(Cc1ccoc1)CC2 | 4.362%
* Cn1ccc(CN2CCC(COC3CCCC3)CC2)cc1=O | 0.4773%
* CNC(=O)C1CN(c2ccnc(C)n2)CCN(C2CCOCC2)C1 (stereo not drawn) | 13.29%
* Cc1cc(C)n(CCCNC(=O)C(C)NC(=O)CC2CCCCC2)n1 (stereo not drawn) | 0.8057%
* O=C(c1ccnc(CC2COc3ccccc3C2)c1)N1CCCC1 (stereo not drawn) | -1.253%
* COCc1ncn2c1CN(C(=O)Nc1ccccc1)CC2 | 4.123%
* CCC(=O)Nc1ccc2c(c1)CN(C(=O)c1ccco1)CC2 | -3.017%
* CCn1ncc2c1C(COC)N(C(=O)c1cccs1)CC2.O=C(O)C(F)(F)F (stereo not drawn) | 5.267%
* CC(=O)N[C@H]1CCO[C@@H](c2cccc(NC(=O)c3ccc(=O)[nH]n3)c2)C1 | 12.06% and 13.62% and 9.432%
* [H][C@@]12CCN(C(=O)c3cccn3C)C[C@@]1([H])O[C@@H](c1nc(C)no1)C2 | 5.754%
* Cc1ccc(CN2CCN(c3cncc(N(C)C)n3)CC2=O)cc1C | -12.46%
* Cc1ccccc1C(=O)N1CCC2(CCC(C(=O)NCC3CC3)O2)CC1 (stereo not drawn) | 9.025%
* CN(Cc1cnn(-c2ccccc2)n1)CC1CCCN1c1cccnn1 (stereo not drawn) | 5.786%
* CC(C)N1CC(C(=O)N2CCN(CCn3cccc3)CC2)CC1=O (stereo not drawn) | 7.219%
* O=C(C[S+]([O-])Cc1ccc(Cl)cc1Cl)N1CCc2sccc2C1 (stereo not drawn) | -8.487%
* COc1ncccc1NC(=O)C1CCOCC1 | -1.949%
* Cc1nc(NC(=O)C(C)N2CCN(c3cnccn3)CC2)sc1C (stereo not drawn) | 1.874%
* Cn1cc(CN2CCC(F)(F)C3(CCN(c4cccc(F)c4)C3)C2)cn1 (stereo not drawn) | 18.53%
* CN(C)C1CCN(C(=O)c2ccc(Cn3ccccc3=O)o2)CC1 | -0.7519%
* COCCc1noc(CN(C)c2nccc(C)n2)n1 | -30.88% and -43.52% and -7.008%
* CCc1cc(-c2nccn2-c2ccccc2CN2CCOCC2)on1 | -11.9%
* CC(C)N(C)S(=O)(=O)N(C)Cc1cnn(C)c1 | -3.197%
* CN([C@@H]1CC[C@@H](N2CCOCC2)[C@@H]1O)S(=O)(=O)c1ccccc1 | -1.267%
* O=C(O)c1cc(-c2cccs2)nc2c(Cl)cnn12 | 15.6%
* O=C(NCCn1nc2ccccn2c1=O)c1cccc2[nH]ncc12 | 10.79%
* O=C(O)C(F)(F)F.[H][C@@]12OCCN(CC3CCOCC3)[C@@]1([H])CC[C@H]2OCC1CC1 | -3.157%
* Cc1cc(C)nc(Nc2nccnc2C2CCCN(C(CO)CO)C2)n1 (stereo not drawn) | 11.03%
* Cc1nn(C)c(C)c1-c1cncc(C2CCN(S(C)(=O)=O)CC2)n1 | -7.958%
* NC(=O)c1cn2cc(-c3ccccc3Cl)n(CC3CC3)c(=O)c2n1 | -16.46%
* Cc1n[nH]c(C2CN(C(=O)c3ccco3)CCO2)n1 (stereo not drawn) | -0.1127%
* Cc1nnc2ccc(C(=O)N3CCSC(C)(C)C3)cn12 | 1.088%
* CCOC(=O)N1CCc2ccccc2C12CCNCC2.Cl | 8.839%
* Cc1cccn2c(CC(=O)N3CCC(CCn4cccn4)CC3)cnc12 | -12.47% and -20.6%
* c1ccc2cc(OCCCN3CCn4c(nnc4C4CC4)C3)ccc2c1 | 3.812%
* Cc1cnn(CCNCc2nccn2CC(F)(F)F)c1 | -12.54%
* CNc1nc2c(s1)C(=O)CN(C(=O)NCc1ccccc1)C2 | -9.314%
* O=C(CN1CCCC1c1noc(C2CC2)n1)NCCc1ccsc1 (stereo not drawn) | 13.6%
* CN(C)CCN1CCN(CC2CC2)c2ncccc2C1 | 7.456%
* OC(CNCCn1cccn1)c1ccc(F)c(F)c1 (stereo not drawn) | -19.61%
* CCc1csc(CCNC(=O)C2CC(=O)N(C(C)C)C2)n1 (stereo not drawn) | -6.761%
* O=C(O)C(F)(F)F.[H][C@@]12COC[C@]1(CNS(=O)(=O)CC)CN(Cc1sccc1C)C2 | 1.515%

The last 5 entries again:

Compound	effect
O=C(CN1CCCC1c1noc(C2CC2)n1)NCCc1ccsc1 (stereo not drawn)	13.6
CN(C)CCN1CCN(CC2CC2)c2ncccc2C1	7.456
OC(CNCCn1cccn1)c1ccc(F)c(F)c1 (stereo not drawn)	-19.61
CCc1csc(CCNC(=O)C2CC(=O)N(C(C)C)C2)n1 (stereo not drawn)	-6.761
O=C(O)C(F)(F)F.[H][C@@]12COC[C@]1(CNS(=O)(=O)CC)CN(Cc1sccc1C)C2	1.515

The values are deposited in ChEMBL (CHEMBL3988442, “University of Dundee, Small-Polar-MMV Screening Library” (2021)).